# In PubChem BioAssay AID1487 (National Center for Advancing Translational Sciences (NCATS), 2009):
# “And” between values parts separate entries of the source, which are not always exact repeats. Identical values can stand only once. The list shows a part of the results. These are further read-outs of the screen, such as a control signal, another cell line or another target. No call is given for them. The list favours compounds with an active or inconclusive main result. The note in brackets gives the kind of curve behind each potency; many fits are weak.
# Experiment: qHTS Assay for Modulators of Lamin A Splicing
# Details: HeLa LMNA splicing GFP/RFP minigene ratio, 48 h
# Procedure, shortened: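 S3 HeLa cells stably expressing lamin A-EGFP splicing minigene plus DsRed2, 600 cells/well, 48 h compound exposure at 37C. Laser-scanning cytometry; analysed as GFP (500-530 nm)/RFP (575-640 nm) total intensity ratio; 0.5% DMSO vehicle.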
# [1] = measured here: RFP viability control channel
# [2] = measured here: GFP splicing reporter channel
Structure (SMILES),AC50 [1],AC50 [2]
COc1ccc2cc(C(N)=O)c(=Nc3ccc(C)cc3)oc2c1,"35.5 µM [falling, partial curve, poor fit]",–
Cc1ccc(S(=O)(=O)N(CC(=O)Nc2cccc([N+](=O)[O-])c2)Cc2ccc(Cl)cc2)cc1,"15.8 µM [rising, partial curve]","12.6 µM [rising, single point]"
Cc1nnc(-c2cccc(Br)c2)c2cn(-c3ccccc3)nc12,"10 µM [rising, single point]",–
O=C(C1CCCCC1)N1CC(=O)N2CCc3ccccc3C2C1 (stereo unspecified),"6.31 µM [falling, partial curve, poor fit] and 35.5 µM [rising, single point]","316 nM [rising, full curve, poor fit] and 14.1 µM [rising, partial curve]"
O=C(c1ccco1)[C@@H]1[C@@H]2C(=O)N(c3ccc(F)cc3)C(=O)[C@@H]2[C@H]2C=Cc3ccccc3N21,"35.5 µM [rising, single point]",–
CCCN1C2=NCCN2c2ccccc21,"12.6 µM [rising, single point]",–
C=CCn1c(SCc2csc(C)n2)nc2sc3c(c2c1=O)CCCCC3,"28.2 µM [rising, single point]",–
CC(=O)NC(c1ccc(C)cc1)c1cc([N+](=O)[O-])c2cccnc2c1O (stereo unspecified),–,"35.5 µM [falling, single point]"
CC(C)(C)C(=O)c1sc(Nc2ccccc2)nc1N,"2.82 µM [rising, full curve, poor fit]",–
Cc1ccc(C(=O)CC2(O)C(=O)N(C)c3ccc(Br)cc32)c(C)c1 (stereo unspecified),"17.8 µM [rising, partial curve, poor fit]",–
CC(O)CO (stereo unspecified),"0.00398 µM [rising, full curve, poor fit]","11.2 µM [falling, single point]"
COC(=O)c1ccc(NC(=S)Nc2ccc(O)cc2)cc1,"0.00447 µM [falling, full curve, poor fit]","0.316 µM [falling, full curve, poor fit]"
CCOC(=O)C(NC(=O)CCC(=O)Nc1ccc(S(N)(=O)=O)cc1)C(O)c1ccccc1 (stereo unspecified),–,"0.1 µM [rising, full curve, poor fit]"
Cc1ccccc1CNc1ncnc2c1ncn2C1OC(CO)C(O)C1O (stereo unspecified),"14.1 µM [rising, single point]","6.31 µM [falling, partial curve, poor fit]"
CCOc1ccccc1CNC(=O)c1cnc2sc(N3CCCCCC3)nn2c1=O,–,"0.398 µM [falling, full curve]"
CC(C)c1ccccc1NC(=O)c1ccc(CN(c2ccccc2)S(=O)(=O)c2ccccc2)cc1,–,"0.891 µM [falling, single point]"
O=C(NCCc1csc2nc(-c3ccc(F)cc3)nn12)c1cccc(C(F)(F)F)c1,–,"0.178 µM [rising, full curve, poor fit]"
COc1ccc(-n2ccn(CC(=O)NCCc3ccccc3)c(=O)c2=O)cc1OC,"0.891 µM [rising, full curve, poor fit]","0.398 µM [rising, full curve, poor fit]"

Structure (SMILES),AC50 [1],AC50 [2]
COc1ccc(C)cc1NC(=O)NCc1ccco1,"35.5 µM [rising, partial curve, poor fit]",–
CCc1ccc(S(=O)(=O)NCCc2csc3nc(-c4ccccc4)nn23)s1,–,"12.6 µM [falling, partial curve, poor fit]"
Fc1ccc(Nc2ncncc2-c2ccoc2)cc1,–,"1.78 µM [falling, partial curve]"
C=CCc1cc(Cl)ccc1OCCOCCN(C)C,"0.00794 µM [rising, full curve, poor fit]","0.0282 µM [rising, full curve]"
O=C(c1ccccc1)N1CCN(c2ccc([N+](=O)[O-])c(NCC3CCCO3)c2)CC1 (stereo unspecified),"17.8 µM [falling, single point]","0.112 µM [falling, full curve, poor fit]"
COc1ccccc1OCCC(=O)OCC(=O)Nc1cccc(Br)c1,"0.355 µM [rising, full curve, poor fit]",–
O=c1c(-c2ccc3c(c2)OCCO3)coc2cc(OC3OC(CO)C(O)C(O)C3O)ccc12 (stereo unspecified),"6.31 µM [falling, single point]","0.0794 µM [rising, partial curve, poor fit]"
CCN1C(=O)N[C@@H](c2ccccc2)[C@H](C(=O)OC)[C@H]1C,"0.708 µM [rising, partial curve]","0.355 µM [rising, partial curve, poor fit]"
Cc1cc(N2CCN(C(c3ccccc3)c3ccccc3)CC2)n2ncnc2n1,–,"7.08 µM [rising, partial curve, poor fit]"
Cn1c(NNC(=O)c2ccc(C(C)(C)C)cc2)cc(=O)n(C)c1=O,"12.6 µM [rising, partial curve, poor fit]",–
Cc1ccccc1N(CC(=O)Nc1ccccc1C(=O)NCc1ccco1)S(=O)(=O)c1ccccc1,"35.5 µM [rising, single point]",–
CC(C)N(Cc1ccccc1)C(=S)Nc1ccc(OC(F)F)cc1,"14.1 µM [rising, single point]",–
CSc1ccc(CN(C)CC(=O)NC(C)c2ccccc2)cc1 (stereo unspecified),"5.62 µM [rising, partial curve]",–
NNC(=O)CN1C(c2ccccc2)=Nc2ccc(Br)cc2C1c1ccccc1 (stereo unspecified),–,"14.1 µM [falling, partial curve]"
CSc1ccc(Cl)c(C(=O)NCCOc2cc(C(C)C)ccc2C)c1,"22.4 µM [rising, single point]","12.6 µM [rising, single point]"
COc1ccc(NC(=O)CC2CCCC2)cc1S(=O)(=O)N1CCCCC1,"12.6 µM [rising, partial curve, poor fit]",–
O=C(NC1CCCCC1)C(c1cccs1)N(C(=O)Cc1c[nH]c2ccccc12)c1ccc(F)cc1 (stereo unspecified),"15.8 µM [rising, single point]",–
